{"sequences": {"note": "By UniProt entry, the sequences of proteins in these tests, tags left out. Where a name states a change or a piece, a line headed by the entry shows the natural chain unless it says otherwise.", "UniProt P11308": "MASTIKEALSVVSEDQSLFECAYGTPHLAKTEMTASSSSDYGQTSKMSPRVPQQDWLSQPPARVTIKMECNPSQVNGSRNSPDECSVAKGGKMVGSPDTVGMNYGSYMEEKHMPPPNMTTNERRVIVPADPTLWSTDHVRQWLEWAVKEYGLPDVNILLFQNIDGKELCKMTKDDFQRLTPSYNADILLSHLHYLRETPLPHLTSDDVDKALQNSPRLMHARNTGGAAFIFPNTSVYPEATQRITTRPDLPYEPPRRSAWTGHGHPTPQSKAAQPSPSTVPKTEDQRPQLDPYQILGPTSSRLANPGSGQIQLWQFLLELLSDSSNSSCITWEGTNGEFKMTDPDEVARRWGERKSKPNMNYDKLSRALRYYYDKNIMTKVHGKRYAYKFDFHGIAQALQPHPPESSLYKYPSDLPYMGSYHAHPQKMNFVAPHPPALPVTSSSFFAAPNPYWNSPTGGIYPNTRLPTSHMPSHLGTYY"}, "source": "PubChem BioAssay AID651804", "about": "(National Center for Advancing Translational Sciences (NCATS), 2012)", "note": "In all, about 1,200 compounds went through this assay and about 20 (2%) were called active. Roughly 23% stayed inconclusive and do not appear here. The call rests on the fitted dose curve; in most records, active means well fitted inhibition curve with a large enough effect; inconclusive means small, poorly fitted or top-dose-only effect; inactive means no such curve, though single readings can be large or run the other way. Some of the results follow. Potency means the concentration at half of the fitted maximal effect.", "data": [{"target": "Transcriptional regulator ERG (Homo sapiens) (UniProt P11308)", "experiment": "qHTS for Small Molecule Inhibitors of the ERG Ets/DNA interaction: HTRF assay against cherry picks", "settings": "His-ERG Ets domain with biotin-DNA; series mostly up to 154 µM; activity change, negative = inhibition: at the top concentration", "in_short": "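HTRF of His-tagged ERG Ets domain (200 nM solution) with biotin-DNA (200 nM solution) in 300mM KCl, 50mM Tris-HCl pH 7.5, 1mM EDTA, 1mM DTT; 10 min RT. Anti-His cryptate donor plus streptavidin acceptor added, 10 min, FRET read at 615/665 nm.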", "values": [{"smiles": "CCN(C(=O)COC(=O)c1ccc(=O)n(Cc2ccccc2)n1)C1CCS(=O)(=O)C1", "note": "(stereo not given)", "activity change, negative = inhibition": "inactive: -38%"}, {"smiles": "Cc1ccc(OCCn2cc(/C=N/NC(=O)c3ccncc3)c3ccccc32)cc1", "activity change, negative = inhibition": "inactive: -26.7%"}, {"smiles": "COc1ccc(C(=O)Nc2nc(-c3ccc(OC)cc3)c(-c3ccc([N+](=O)[O-])cc3)s2)cc1", "activity change, negative = inhibition": "inactive: -11.9%"}, {"smiles": "CC(C)=CCOc1ccc2c(C)c(CC(=O)N3C[C@H]4C[C@@H](C3)c3cccc(=O)n3C4)c(=O)oc2c1C", "activity change, negative = inhibition": "inactive: -20.2%"}, {"smiles": "COc1ccccc1OCC(O)CN1CCN(CC(=O)Nc2c(C)cccc2C)CC1", "note": "(stereo not given)", "activity change, negative = inhibition": "inactive: -24.2%"}, {"smiles": "COc1ccc(OCCn2c(=O)sc3ccccc32)cc1", "activity change, negative = inhibition": "inactive: -23%"}, {"smiles": "CCOC(=O)C(=O)c1c(-c2ccccc2)nc2ccccn12", "activity change, negative = inhibition": "inactive: -21.9%"}, {"smiles": "O=C(CCNS(=O)(=O)c1ccc2c(c1)CCN2C(=O)C1CC1)Nc1ccc(F)cc1F", "activity change, negative = inhibition": "inactive: -16.4%"}, {"smiles": "Cc1ccc(-c2nc(CN3CCCC(C(=O)N4CCOCC4)C3)c(C)o2)cc1", "note": "(stereo not given)", "activity change, negative = inhibition": "inactive: -9.66%"}, {"smiles": "O=C1c2ccccc2C(=O)c2c1ncn2-c1ccccc1", "Potency": "active: 15.8 µM"}, {"smiles": "COCC(=O)NCc1ccc2c(c1)cc(C)n2C", "activity change, negative = inhibition": "inactive: -22.5%"}, {"smiles": "Cc1cc(C)c(/C=C2\\C(=O)Nc3ccccc32)[nH]1", "activity change, negative = inhibition": "inactive: -28.8%"}, {"smiles": "O=C1c2ccc3c4c(ccc(c24)C(=O)N1CCCCO)C(=O)N(CCCCO)C3=O", "Potency": "active: 20 µM"}, {"smiles": "COc1cccc(NC(=O)NNC(=O)c2ccc3c(c2)NC(=O)C(C)(C)O3)c1", "activity change, negative = inhibition": "inactive: -10.2%"}, {"smiles": "COC(=O)C(CCSC)NC(=O)c1cc2c(n(-c3ccccc3)c1=O)CC(C)(C)CC2=O", "note": "(stereo not given)", "activity change, negative = inhibition": "inactive: -23.7%"}, {"smiles": "O=C(/C=C/c1ccccc1)NCCc1nc2ccccc2[nH]1", "activity change, negative = inhibition": "inactive: -14.6%"}, {"smiles": "O=C(NCCN1CCN(Cc2ccccc2Cl)CC1)Nc1ccccc1", "activity change, negative = inhibition": "inactive: -28.7%"}, {"smiles": "CC1(C)CC(=O)C2=C(C1)Nc1ccccc1NC2c1nc2ccccc2[nH]1", "note": "(stereo not given)", "activity change, negative = inhibition": "inactive: -40.4%"}, {"smiles": "COc1cc(CO)ccc1OCC(=O)Nc1cccc2ccccc12", "activity change, negative = inhibition": "inactive: -34.3%"}, {"smiles": "O=C(CN1C(=O)NC2(CCCC2)C1=O)Nc1nc2ccccc2s1", "activity change, negative = inhibition": "inactive: -25.7%"}, {"smiles": "CC(=O)Oc1ccc(C(=O)Nc2ccccc2C(=O)Nc2ccc(C(=O)O)cc2)cc1", "activity change, negative = inhibition": "inactive: -15.4%"}, {"smiles": "COc1cc(NC(=O)COC(=O)CNC(=O)C2CCCCC2)cc(OC)c1", "activity change, negative = inhibition": "inactive: -17.5%"}, {"smiles": "COc1ccc(CNCCC2(C(C)C)CCOC(C)(C)C2)cc1", "note": "(stereo not given)", "activity change, negative = inhibition": "inactive: -13.4%"}, {"smiles": "COc1ccc(-c2cc(C(F)(F)F)n3nc(C(=O)N(C)Cc4ccccc4)cc3n2)cc1OC", "activity change, negative = inhibition": "inactive: -4.46%"}, {"smiles": "CC(=O)Nc1cccc(S(C)(=O)=O)c1", "activity change, negative = inhibition": "inactive: -12%"}, {"smiles": "COCCn1c(=O)c2c(nc3n2CC(C)CN3CCc2ccccc2)n(C)c1=O", "note": "(stereo not given)", "activity change, negative = inhibition": "inactive: -26.4%"}, {"smiles": "CC(C)c1ccc(NC(=O)CSc2nc(-c3ccccc3F)nc3nc[nH]c23)cc1", "activity change, negative = inhibition": "inactive: 384%"}, {"smiles": "COc1ccc(CCNC(=O)c2cccc(S(=O)(=O)N3CCCC3)c2)cc1", "activity change, negative = inhibition": "inactive: -24.1%"}, {"smiles": "CCn1nc(C)cc1C(=O)N1CCCC(N2CCN(Cc3ccc4c(c3)OCO4)CC2)C1", "note": "(stereo not given)", "activity change, negative = inhibition": "inactive: -15.2%"}, {"smiles": "COc1cnn(-c2cccc(Cl)c2)c(=O)c1Cl", "activity change, negative = inhibition": "inactive: -10.6%"}, {"smiles": "O=C(COC(=O)COc1ccc(Cl)cc1)NCCCc1ccccc1", "activity change, negative = inhibition": "inactive: -25.1%"}, {"smiles": "COc1ccc(CC(=O)OCC(=O)c2ccc(OC)cc2)cc1", "activity change, negative = inhibition": "inactive: -23.3%"}, {"smiles": "O=C(CCC1CCCN(C(=O)c2ccsc2)C1)NCc1ccc(F)c(F)c1", "note": "(stereo not given)", "activity change, negative = inhibition": "inactive: -5.3%"}, {"smiles": "CC(=O)Nc1ccc(S(=O)(=O)NCC(=O)OCC(=O)NCc2ccco2)cc1", "activity change, negative = inhibition": "inactive: 3.34%"}, {"smiles": "CC(=O)NNc1cc(N2CCOCC2)nc(N2CCOCC2)n1", "activity change, negative = inhibition": "inactive: 0.53%"}, {"smiles": "CC(C)n1cc(/C=N/NC(=O)COc2cccc3cccnc23)c2ccccc21", "activity change, negative = inhibition": "inactive: -21.4%"}, {"smiles": "CC(C)CNC(=O)CCc1nc(-c2ccccc2)no1", "activity change, negative = inhibition": "inactive: -8.75%"}, {"smiles": "COc1ccccc1NS(=O)(=O)c1cc(C(=O)N2CCCC2)ccc1C", "activity change, negative = inhibition": "inactive: -12.7%"}, {"smiles": "CN(C(=O)CSc1nc(-c2ccccc2)c(-c2ccccc2)o1)C1CCS(=O)(=O)C1", "note": "(stereo not given)", "activity change, negative = inhibition": "inactive: -10.6%"}, {"smiles": "Cc1cccc(C)c1OCC(=O)N(Cc1ccc(Cl)cc1)C1CCS(=O)(=O)C1", "note": "(stereo not given)", "activity change, negative = inhibition": "inactive: 4.62%"}, {"smiles": "O=C(O)CNC(=O)CC1S/C(=N/N=C/c2ccccc2O)NC1=O", "note": "(stereo not given)", "activity change, negative = inhibition": "inactive: -32.7%"}, {"smiles": "Cc1cccc(C)c1NC(=O)C1(N2C(=O)CC2c2ccccc2)CCCCC1", "note": "(stereo not given)", "activity change, negative = inhibition": "inactive: 0.955%"}, {"smiles": "COc1ccc(NC(=O)COc2ccccc2Cc2ccccc2)cn1", "activity change, negative = inhibition": "inactive: -15.4%"}, {"smiles": "NC(=O)c1cc(S(=O)(=O)NCCc2ccccc2)cs1", "activity change, negative = inhibition": "inactive: -10.8%"}, {"smiles": "NC(=O)c1ccccc1O", "activity change, negative = inhibition": "inactive: -9.23%"}, {"smiles": "O=C(/C=C/c1ccc(Br)cc1)c1ccc(NC2=NCCCS2)cc1", "activity change, negative = inhibition": "inactive: -12.7%"}, {"smiles": "CCCCC1=CC2=CC(=O)C(C)(OC(=O)CC)C(=O)C2=CN1CCOC", "note": "(stereo not given)", "activity change, negative = inhibition": "inactive: -15.9%"}, {"smiles": "COc1ccc(C2c3[nH]c4ccccc4c3C[C@H]3C(=O)N(c4ccccc4C(=O)N4CCC[C@@H]4C(=O)O)C(=O)N23)cc1", "note": "(stereo not given in full)", "activity change, negative = inhibition": "inactive: -21.1%"}, {"smiles": "COCCCC/C(=N\\OCCN)c1ccc(C(F)(F)F)cc1", "activity change, negative = inhibition": "inactive: -29.4%"}, {"smiles": "COc1ccc([N+](=O)[O-])c(OC)c1C(=O)NC(=O)Nc1c(F)c(F)c(F)c(F)c1F", "activity change, negative = inhibition": "inactive: -14.5%"}, {"smiles": "CCOC(=O)C1CCCN(C(=O)c2cc3cc(OC)c(OC)cc3[nH]2)C1", "note": "(stereo not given)", "activity change, negative = inhibition": "inactive: -21.2%"}, {"smiles": "Oc1ccc(NCc2cccc(OCc3ccc(F)cc3)c2)cc1", "activity change, negative = inhibition": "inactive: 7.9%"}, {"smiles": "CS(=O)(=O)c1ccc([C@@H](O)[C@@H](CF)NC(=O)C(Cl)Cl)cc1", "activity change, negative = inhibition": "inactive: -22.9%"}, {"smiles": "COCCN(C(=O)COC(=O)C1(c2ccccc2)CC1)c1c(N)n(CC(C)C)c(=O)[nH]c1=O", "activity change, negative = inhibition": "inactive: -5.04%"}, {"smiles": "O=C(COc1ccc(S(=O)(=O)N2CCOCC2)cc1Cl)NCCCn1ccnc1", "activity change, negative = inhibition": "inactive: -21.4%"}]}]}
